Results: the supplement of paper PMC4604168 (melanoma cell lines)
The other results are listed elsewhere or left out. Repeats are few or missing, and single values can be far off.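 The apoptosis fraction was the count of cleaved-PARP antibody-stained nuclei relative to all DNA-stained nuclei, imaged in 1,536-well plates. Screening doses were set so most cells survived, and baseline and induced cleaved-PARP levels vary greatly across cell lines.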

Legend:
Assay in all cases: cleaved PARP positive nuclei fraction relative to DMSO control; melanoma cells; higher = more apoptosis
Conditions in all cases: library dose: low library concentration; 72 h
COLO792 = test system: COLO792
COLO800 = test system: COLO800
COLO829 = test system: COLO829
G361 = test system: G361
IPC-298 = test system: IPC-298
IST-MEL1 = test system: IST-MEL1
LB2518-MEL = test system: LB2518-MEL
LOXIMVI = test system: LOXIMVI
MEL-HO = test system: MEL-HO
MZ2-MEL = test system: MZ2-MEL
MeWo = test system: MeWo
RPMI7951 = test system: RPMI7951
RVH-421 = test system: RVH-421
SkMel28 = test system: SkMel28
SkMel2 = test system: SkMel2
SkMel30 = test system: SkMel30
SkMel5 = test system: SkMel5
UACC257 = test system: UACC257
UACC62 = test system: UACC62

SMILES | cleaved PARP positive nuclei fraction (COLO792) | cleaved PARP positive nuclei fraction (COLO800) | cleaved PARP positive nuclei fraction (COLO829) | cleaved PARP positive nuclei fraction (G361) | cleaved PARP positive nuclei fraction (IPC-298) | cleaved PARP positive nuclei fraction (IST-MEL1) | cleaved PARP positive nuclei fraction (LB2518-MEL) | cleaved PARP positive nuclei fraction (LOXIMVI) | cleaved PARP positive nuclei fraction (MEL-HO) | cleaved PARP positive nuclei fraction (MZ2-MEL) | cleaved PARP positive nuclei fraction (MeWo) | cleaved PARP positive nuclei fraction (RPMI7951) | cleaved PARP positive nuclei fraction (RVH-421) | cleaved PARP positive nuclei fraction (SkMel28) | cleaved PARP positive nuclei fraction (SkMel2) | cleaved PARP positive nuclei fraction (SkMel30) | cleaved PARP positive nuclei fraction (SkMel5) | cleaved PARP positive nuclei fraction (UACC257) | cleaved PARP positive nuclei fraction (UACC62)
COCC[n+]1c2c(n(Cc3cnccn3)c1C)C(=O)c1ccccc1C2=O + Cc1ccc(NC(=O)c2cccc(N(C)C)c2)cc1NC(=O)c1ccc(O)cc1 [ZM336372] (first compound 0.0004 µM, partner dose 2 µM) | 125% | 110% | 46.8% | 74% | 30.3% | 123% | 111% | 119% | 67.1% | 153% | 110% | 269% | 143% | 27.8% | 166% | 73.6% | 226% | 101% | 94.8%
C=CCNC1=C2C[C@@H](C)C[C@H](OC)[C@H](O)[C@@H](C)/C=C(\C)[C@H](OC(N)=O)[C@@H](OC)/C=C\C=C(/C)C(=O)NC(=CC1=O)C2=O [Tanespimycin] + O=C(O)c1ccc(-c2c[nH]c3ncc(-c4ccccc4)cc23)cc1C1CCCC1 [GSK650394] (first compound 0.002 µM, partner dose 0.16 µM) | 103% | 39.1% | 117% | 59.4% | 130% | 166% | 87.6% | 69% | 71.1% | 176% | 115% | 167% | 101% | 69.8% | 107% | 63.3% | 66.9% | 55.9% | 107%
Cn1c(Nc2ccc(C(F)(F)F)cc2)nc2cc(Oc3ccnc(-c4ncc(C(F)(F)F)[nH]4)c3)ccc21 + CC(C)(C)c1cnc(CSc2cnc(NC(=O)C3CCNCC3)s2)o1 [SNS-032] (first compound 0.08 µM, partner dose 0.01 µM) | 556% | 110% | 157% | 62.2% | 239% | 327% | 342% | 57.9% | 130% | 223% | 107% | 277% | 117% | 237% | 116% | 112% | 67.2% | 782% | 797%
Nc1cccc2c1CN(C1CCC(=O)NC1=O)C2=O (configuration not stated) [lenalidomide] + O=C(Nc1cccc(Cl)c1)Nc1ncc(CCNc2ncnc3ccsc23)s1 [SNS314] (first compound 1 µM, partner dose 0.0008 µM) | 86.4% | 91.4% | 106% | 97.7% | 88.7% | 53.1% | 297% | 220% | 124% | 35.3% | 120% | 89.7% | 142% | 134% | 151% | 139% | 134% | 110% | 162%
CC(C)(C)c1cnc(CSc2cnc(NC(=O)C3CCNCC3)s2)o1 + C[C@@H]1CCN(C(=O)CC#N)C[C@@H]1N(C)c1ncnc2[nH]ccc12 [CP690550] (first compound 0.01 µM, partner dose 1 µM) | 185% | 141% | 207% | 74.4% | 90.5% | 48.7% | 91.4% | 51.8% | 60.3% | 112% | 106% | 95.1% | 108% | 83.7% | 112% | 69.9% | 32.1% | 137% | 242%
Cn1cncc1[C@@](N)(c1ccc(Cl)cc1)c1ccc2c(c1)c(-c1cccc(Cl)c1)cc(=O)n2C [tipifarnib] + CN(NC(=O)CC(=O)NN(C)C(=S)c1ccccc1)C(=S)c1ccccc1 [STA4783] (first compound 0.01 µM, partner dose 0.006 µM) | 220% | 268% | 229% | 372% | 207% | 101% | 147% | 190% | 72% | 102% | 38.6% | 154% | 177% | 74.9% | 127% | 59.5% | 151% | 234% | 170%
NC(=O)Nc1cc(-c2cccc(F)c2)sc1C(=O)N[C@H]1CCCNC1 + COc1cc2c(Oc3ccc4[nH]c(C)cc4c3F)ncnc2cc1OCCCN1CCCC1 [cediranib] (first compound 0.02 µM, partner dose 0.4 µM) | 93% | 108% | 106% | 89.3% | 40.6% | 84.8% | 67.1% | 121% | 63.3% | 45.8% | 131% | 159% | 19.9% | 152% | 77.1% | 76.8% | 61% | 36.9% | 216%
OCc1c[nH]c2ccccc12 [Indole-3-carbinol] + C[C@@H]1CCN(C(=O)CC#N)C[C@@H]1N(C)c1ncnc2[nH]ccc12 [CP690550] (first compound 0.8 µM, partner dose 1 µM) | 103% | 75.5% | 37% | 80.6% | 29.5% | 94.7% | 103% | 157% | 60.2% | 96.4% | 98.3% | 45.3% | 44.7% | 56.2% | 60.3% | 58.2% | 69.9% | 114% | 199%

Some values from above.
C=CCNC1=C2C[C@@H](C)C[C@H](OC)[C@H](O)[C@@H](C)/C=C(\C)[C@H](OC(N)=O)[C@@H](OC)/C=C\C=C(/C)C(=O)NC(=CC1=O)C2=O [Tanespimycin] + O=C(O)c1ccc(-c2c[nH]c3ncc(-c4ccccc4)cc23)cc1C1CCCC1 [GSK650394] (first compound 0.002 µM, partner dose 0.16 µM) – cleaved PARP positive nuclei fraction (SkMel28): 69.8%
Cn1cncc1[C@@](N)(c1ccc(Cl)cc1)c1ccc2c(c1)c(-c1cccc(Cl)c1)cc(=O)n2C [tipifarnib] + CN(NC(=O)CC(=O)NN(C)C(=S)c1ccccc1)C(=S)c1ccccc1 [STA4783] (first compound 0.01 µM, partner dose 0.006 µM) – cleaved PARP positive nuclei fraction (SkMel28): 74.9%
